Laboratory results reported in PubChem BioAssay AID504834 (National Center for Advancing Translational Sciences (NCATS), 2011).
Where “and” joins values, the source holds several entries; their conditions need not be identical. Equal values may be shown once. About 22,000 (6.9%) of roughly 320,000 compounds were called active. Inconclusive results, whose numbers are uncertain, are shown with a selection of clear calls. Calls come from the whole dose curve; as a rule, active = well fitted inhibition curve with a large enough effect; inconclusive = small, poorly fitted or top-dose-only effect, or another doubt; inactive = no such curve, though single readings can be large or run the other way. A potency beside an inconclusive call is a rough fit, not a confirmed value.

Test: Primary qHTS for delayed death inhibitors of the malarial parasite plastid, 96 hour incubation
Conditions: P. falciparum luciferase reporter growth; series mostly up to 28.7 µM
Method in brief: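 Luminescence readout: decreased luciferase signal marks inhibited growth of reporter-expressing P. falciparum in infected red cells (2% hematocrit, 0.05% parasitemia final), exposed to compound two generations (96 h, 37 C, 5% CO2).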
% is set by controls: 0 for no effect and ±100 for the full control effect; potency is the fitted concentration of half-maximal effect.

| SMILES | Potency | activity change, negative = inhibition |
| --- | --- | --- |
| CCOC(=O)c1cc(C)sc1NC(=O)C(c1ccccc1)c1ccccc1 | inconclusive: 13.1 µM [inhibitor, partial curve, poor fit] |  |
| Cc1cccc(N2CCN(C(=O)C3CCN(S(=O)(=O)N4CCOCC4)CC3)CC2)c1C | inconclusive: 16.5 µM [inhibitor, single point] |  |
| CCCCOC(=O)c1ccc(NC(=O)c2ccccc2OC)cc1 | inconclusive: 18.5 µM [inhibitor, single point] |  |
| CCOC(=O)c1c(-c2ccccc2)oc2cc(Br)c(O)c(C=O)c12 | inconclusive: 11.7 µM [inhibitor, partial curve, poor fit] |  |
| CCOC(=O)N1CCC(N2CCN(C3CCCC3)C(CCO)C2)CC1 (stereo unspecified) | inconclusive: 18.5 µM [inhibitor, single point] |  |
| Cn1c(CCN2CCCCCC2)nc2cc(NC(=O)Nc3ccccc3)ccc21 | inconclusive: 2.94 µM [inhibitor, full curve, poor fit] |  |
| Cn1nc(-c2ccc(OCC(=O)NCC3CCCO3)cc2)c2ccccc2c1=O (stereo unspecified) | inconclusive: 11.7 µM [inhibitor, partial curve] |  |
| O=C(CCCOc1ccccc1)Nc1nc2ccccc2[nH]1 | inactive |  |
| O=S(=O)(c1ccc(Br)s1)N1CCN(c2ncccn2)CC1 | inactive |  |
| CC(=O)OC(C)C[N+](C)(C)C (stereo unspecified) | inconclusive: 9.28 µM [inhibitor, partial curve, poor fit] |  |
| COc1ccc(-n2c(=S)[nH]c3ccccc32)cc1 | inconclusive: 10.4 µM [inhibitor, single point] |  |
| CCCCOc1ccc(CC(=O)NO)cc1 | active: 144 nM and active: 233 nM |  |
| Cc1ccc2c(c1)N(CC(=O)NCCCN1C(C)CCCC1C)C(=O)c1cccnc1O2 (stereo unspecified) | inconclusive: 18.5 µM [inhibitor, single point] |  |
| COc1ccc([N+](=O)[O-])cc1NC(=O)c1ccc(N2C(=O)CCC2=O)cc1 | inactive |  |
| CCc1ccc(C2CC(=O)N(c3ccc(F)cc3)C3=C2C(=O)OC3)cc1 (stereo unspecified) | inconclusive: 2.62 µM [inhibitor, full curve, poor fit] |  |
| COc1ccc(CN2CCN(C(=O)c3cc(C4CC4)nn3-c3ccccc3)CC2)cc1F | active: 11.7 µM |  |
| CCOC(=O)N1CCN(S(=O)(=O)c2ccc(F)c(C(=O)Nc3cc(C)cc(C)c3)c2)CC1 | inconclusive: 16.5 µM [inhibitor, single point] |  |
| C/C(=N\NC(=O)c1ccc(-c2ccccc2)cc1)c1ccco1 | inconclusive: 20.8 µM [inhibitor, partial curve, poor fit] |  |
| Cc1nnc(NC(=O)CSc2nnc3ncccn23)s1 | inactive |  |
| C/C(=N\NC(=O)COc1ccc(C)cc1C(C)C)c1cc2ccccc2o1 | inconclusive: 0.522 µM [inhibitor, single point] |  |
| COc1ccc(NC(=O)CN(C)C(=O)C(Sc2ccccc2)c2ccccc2)cc1 (stereo unspecified) | inconclusive: 18.5 µM [inhibitor, single point] |  |
| O=C1c2ccc3c4c(ccc(c24)C(=O)N1Cc1cccnc1)C(=O)N(Cc1cccnc1)C3=O | inconclusive: 6.57 µM [inhibitor, partial curve, poor fit] |  |

Compounds shown so far that have a thiophene ring, fused or not (two):

| SMILES | Potency | activity change, negative = inhibition |
| --- | --- | --- |
| CCOC(=O)c1cc(C)sc1NC(=O)C(c1ccccc1)c1ccccc1 | inconclusive: 13.1 µM [inhibitor, partial curve, poor fit] |  |
| O=S(=O)(c1ccc(Br)s1)N1CCN(c2ncccn2)CC1 | inactive |  |

Further results follow.

| SMILES | Potency | activity change, negative = inhibition |
| --- | --- | --- |
| Cc1cccc2cc(CN(Cc3ccccc3)C(=O)c3cccc(F)c3)c(Cl)nc12 | inconclusive: 18.5 µM [inhibitor, single point] |  |
| CCCCCCSc1ccc(-c2nc3ccc(C)cn3c2NCc2ccccc2)cc1 | inconclusive: 18.5 µM [inhibitor, single point] |  |
| CC(=O)c1cccc(OCc2cc(C(=O)N3C[C@@H](C)O[C@@H](C)C3)no2)c1 | inconclusive: 18.5 µM [inhibitor, single point] |  |
| O=C(Oc1ccc2c(c1)C(=O)c1ccccc1CO2)c1ccccc1 | inconclusive: 18.5 µM [inhibitor, single point] |  |
| CCOC(=O)c1c(N)n(Cc2ccco2)c2nc3ccccc3nc12 | inactive |  |
| Cc1csc2c(SCC(=O)NNC(=O)C(Cl)Cl)ncnc12 | inconclusive: 2.08 µM [inhibitor, full curve] |  |
| O=C(O)c1ccc2c(=O)n3c(nc2c1)/C(=C/c1cccc(Cl)c1Cl)CC3 | inconclusive: 6.57 µM [inhibitor, partial curve] |  |
| COc1ccccc1C1CCN(C(=O)c2ccc(C(C)(C)C)cc2)CC1 | active: 7.38 µM |  |
| O=C1[C@H]2[C@@H](C(=O)N1c1cccc3ccccc13)C1(C(=O)c3ccccc3C1=O)N1CCC[C@@H]21 | inconclusive: 0.0657 µM [inhibitor, full curve, poor fit] |  |
| COc1ccc(/C(N)=N/OC(=O)CC2CCCCC2)cc1OC | inconclusive: 0.657 µM [inhibitor, full curve, poor fit] |  |
| c1ccc(Oc2cc(-n3cncn3)ncn2)cc1 | inactive |  |
| O=S(=O)(Nc1cccnc1)c1ccc(Cl)c(C(F)(F)F)c1 | inactive |  |
| Cc1ccc(-c2noc(COc3ccccc3C)n2)cc1 | inactive |  |
| Cc1cccc(C)c1NC(=O)C(c1ccccc1)N1CCC1=O (stereo unspecified) | inactive |  |
| CSc1ncc(Cl)c(C(=O)NCc2cccnc2)n1 | inactive |  |
| CCOc1ccc(CCNC(=O)c2nnn(CC(=O)Nc3c(C)cc(C)cc3C)c2N)cc1OCC | inconclusive: 11.7 µM [inhibitor, single point] |  |
| O=C(NCCN1CCOCC1)C1CCC(=O)N1Cc1ccccc1Cl (stereo unspecified) | inconclusive: 16.5 µM [inhibitor, partial curve, poor fit] |  |
| CCOc1cc(-c2nc(C)c(C(C)=O)n2O)ccc1OCC(=O)Nc1ccccc1 | inconclusive: 2.62 µM [inhibitor, partial curve, poor fit] |  |
| COc1ccc(CNC(=O)C2CSC(c3ccc(OC)cc3)N2C(C)=O)cc1 (stereo unspecified) | inactive |  |
| OC1CC(c2ccco2)NC2(CCCCC2)C1 (stereo unspecified) | inconclusive: 18.5 µM [inhibitor, single point] |  |
| Oc1c(Cl)cc(Cl)cc1Sc1cc(Cl)cc(Cl)c1O | inconclusive: 15.1 µM [inhibitor, single point] and inconclusive: 18.5 µM [inhibitor, single point] |  |
| CN(Cc1ccccc1)C(=O)c1cccc(N2C(=O)NC3CC2(C)Oc2ccccc23)c1 (stereo unspecified) | inconclusive: 18.5 µM [inhibitor, single point] |  |

Arranged by count of non-hydrogen atoms (ascending): 3 of the compounds above.

| SMILES | Potency | activity change, negative = inhibition |
| --- | --- | --- |
| c1ccc(Oc2cc(-n3cncn3)ncn2)cc1 | inactive |  |
| Cc1cccc(C)c1NC(=O)C(c1ccccc1)N1CCC1=O (stereo unspecified) | inactive |  |
| CCCCCCSc1ccc(-c2nc3ccc(C)cn3c2NCc2ccccc2)cc1 | inconclusive: 18.5 µM [inhibitor, single point] |  |

Remaining list, next part

| SMILES | Potency | activity change, negative = inhibition |
| --- | --- | --- |
| O=C(Nc1cccc([N+](=O)[O-])c1)C1C2CCCCC21 (stereo unspecified) | inconclusive: 2.33 µM [inhibitor, partial curve, poor fit] |  |
| COc1cccc(CCNCc2cccc(C(F)(F)F)c2)c1 |  | inactive: 42.2% [at 1.15 µM] |
| C[C@@]12C(=O)N(CCc3c[nH]c4ccccc34)CC(=O)N1[C@H]1c3ccccc3OC[C@@H]1[C@@H]2c1ccccc1 | active: 6.57 µM |  |
| COc1cccc(N=C(N)N=C(N)N)c1 | inconclusive: 9.28 µM [inhibitor, single point] |  |
| O=C(CN1CCN(CC(=O)Nc2cccc(F)c2)CC1)NCC1(N2CCOCC2)CCCCC1 | inconclusive: 18.5 µM [inhibitor, single point] |  |
| CN(C)c1ccc2c(c1)Sc1cc(N(C)C)ccc1N2C(=O)c1ccccc1 | active: 1.65 µM |  |
| Cc1ccccc1OCC(=O)NC(=S)Nc1ccc(Br)c(C)n1 | inconclusive: 1.04 µM [inhibitor, partial curve, poor fit] |  |
| O=C(Oc1ccc(Br)cc1C(=S)N1CCOCC1)c1ccc([N+](=O)[O-])cc1[N+](=O)[O-] | inconclusive: 1.65 µM [inhibitor, full curve, poor fit] |  |
| O=C(Cc1ccccc1)NNC(=O)Cc1ccccc1 | inactive |  |
| C=CCc1ccccc1OCC(O)CNC(C)C (stereo unspecified) | inactive and inconclusive: 18.5 µM [inhibitor, single point] |  |
| COC(=O)c1ccccc1NC(=O)CSc1n[nH]c(-c2ccncc2)n1 | inconclusive: 1.31 µM [inhibitor, partial curve, poor fit] |  |
| CN=c1scc(-c2cccs2)n1/N=C/c1ccc(O)c(O)c1O | inconclusive: 11.7 µM [inhibitor, single point] |  |
| CC(Sc1nnc(-c2ccco2)o1)C(=O)NCCC1=CCCCC1 (stereo unspecified) | inconclusive: 18.5 µM [inhibitor, single point] |  |
| CN(Cc1ccccc1)C(=O)CSc1nnc(-c2ccco2)n1-c1ccccc1 | inactive |  |
| CCN(CC)CC(=O)Nc1ccc(C)cc1C(=O)c1ccccc1 | inconclusive: 11.7 µM [inhibitor, single point] |  |
| COCCNC(=S)N1CCN(S(C)(=O)=O)CC1 | inconclusive: 10.4 µM [inhibitor, single point] |  |
| O=[N+]([O-])/C(C(Cl)=C(Cl)Cl)=C(/Sc1ccccc1)N1CCCCC1 | inconclusive: 7.38 µM [inhibitor, partial curve] |  |
| CCCC(=O)Nc1cc(-c2nc3ncccc3o2)ccc1Cl | inconclusive: 0.465 µM [inhibitor, full curve, poor fit] |  |
| Cc1ccc(NC(=O)C2CCC(CNC(=O)[C@@H]3Cc4ccccc4CN3)CC2)c(C)c1 (stereo partly specified) | inconclusive: 18.5 µM [inhibitor, single point] |  |
| CCc1ccc(N(C(=O)c2csnn2)C(C(=O)NC(C)(C)C)c2ccccn2)cc1 (stereo unspecified) | inconclusive: 18.5 µM [inhibitor, single point] |  |
| COc1cccc(C2c3c(oc4ccc(F)cc4c3=O)C(=O)N2CCN2CCOCC2)c1OC (stereo unspecified) | inconclusive: 14.7 µM [inhibitor, partial curve, poor fit] |  |
| Cn1c(C(=O)N2CCN(c3cccc(C(F)(F)F)c3)CC2)cc2sccc21 | active: 9.28 µM |  |
